Test results published in PubChem BioAssay AID2685 (National Center for Advancing Translational Sciences (NCATS), 2010).
This is one part of the list. Further columns of the screen follow, without active or inactive calls. Most of these compounds were active or inconclusive in the main read-out, so they are no random draw. Words in brackets tell the shape of the fitted curve; partial curves, single points and poor fits give uncertain potencies.

Assay: qHTS Assay for Lipid Storage Modulators in Drosophila S3 Cells;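 as to cell number change: cells counted by Cell Tracker Red CMTPX staining in the red channel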
Details: BODIPY lipid droplet fluorescence, 18-24 h; for cell number change: measured here: cell count max response, cells fed with added oleic acid
Summary of the method: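 Drosophila S3 cells got compounds at several concentrations plus oleic acid (400 uM solution). Laser-scanning cytometry with 488 nm excitation read lipid droplets at 500-530 nm and cells at 575-640 nm. Percent activity was relative to 20 uM Triacsin C.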

[1] = measured here: lipid fluorescence (Fed channel) AC50, cells fed with added oleic acid
[2] = measured here: cell number channel AC50, cells fed with added oleic acid

Structure (SMILES) | cell number change | AC50 [1] | AC50 [2]
Cc1cccc(C(=O)N=C2SC3CS(=O)(=O)CC3N2c2ccccc2)c1 (stereo not drawn) | 23.2% | 29.1 µM [rising, single point] | 
CCOc1ccc(C2CC(c3ccc(CC)cc3)n3nc(N)nc3N2)cc1 (stereo not drawn) |  | 0.731 µM [falling, single point] | 
Cc1ccc(Nc2c(-c3ccc(C)o3)nc3cnccn23)cc1 | 0.79% | 7.31 µM [rising, partial curve] | 
COc1cc(C(=O)OCC(=O)N2CCNC2=O)cc(Cl)c1OC | 30.1% |  | 14.6 µM [rising, single point]
CC(Oc1cccc(Cl)c1)C(=O)N1CCN(c2ncccn2)CC1 (stereo not drawn) | -5.21% | 0.651 µM [falling, single point] | 
O=C(CCCOc1ccccc1)Nc1ccc(S(=O)(=O)Nc2ccccn2)cc1 | -9.86% |  | 
Cc1nc(NC(=O)COc2ccccc2)sc1C(=O)Nc1ccccc1 |  | 6.51 µM [rising, single point] | 
CCCOc1cccc(C(=O)O)c1 | 5.75% | 0.00517 µM [falling, full curve, poor fit] | 
CCCOP(=O)(c1ccc(N(C)C)cc1)C(O)c1ccc(Cl)cc1 (stereo not drawn) | 11.6% | 29.1 µM [falling, single point] | 
CN(CC(=O)Nc1ccccc1Sc1ccccc1)C1CCCCC1 | -25.4% | 20.6 µM [falling, single point] | 
CC1(C)CC(=O)C(C(=O)/C=C/c2ccco2)C(=O)C1 | -17.4% | 6.51 µM [falling, partial curve] | 
CCOP(=O)(c1ccccc1)C1(O)CCCCC1 (stereo not drawn) | -23.7% | 23.1 µM [falling, partial curve] | 
CCn1c(SCC(=O)OCc2ccccc2)nnc1-c1ccco1 | -10.4% |  | 
CCCOc1ccc(CNC(=O)C2CCN(C(=O)N3CCOc4ccccc43)CC2)cc1 | 10.1% | 3.26 µM [rising, full curve] | 
CC1(C)Cc2ccccc2C(=NCCCC(=O)O)N1 | 6.56% |  | 
COC(=O)C1=C(C)N(Cc2ccccc2)C(=NCc2ccc(OC)cc2)N[C@H]1c1ccccc1 | -9.36% | 29.1 µM [falling, single point] | 
O=C(CSCc1cnn(-c2ccccc2)c1-n1cccc1)N1CCN(Cc2ccccc2)CC1 | -17.6% |  | 
Nc1nc(NCc2ccccc2)n(-c2ccccc2)n1 | 25.2% | 8.2 µM [rising, partial curve, poor fit] | 
Cn1cccc1C(=O)NC(=O)COC(=O)CNC(=O)CNC(=O)c1ccc(Cl)cc1Cl | -28% | 29.1 µM [falling, single point] | 
O=C(NNC(=O)C1CC1)Nc1ccc(Cl)cc1 |  | 0.58 µM [falling, single point] | 
COc1cc(C(=O)Nc2ccc(Cl)c([N+](=O)[O-])c2)cc(OC)c1OC | 2.48% |  | 

Structure (SMILES) | cell number change | AC50 [1] | AC50 [2]
COc1ccc(CCN2CCCn3c2nc2c3c(=O)n(CC(N)=O)c(=O)n2C)cc1OC |  | 4.11 µM [falling, single point] | 
COc1ccc(NC(=S)NC(=O)/C=C/c2ccccc2)cc1 | -14.6% | 29.1 µM [falling, single point] | 
CN(C)CC(O)CN1C(=O)N(CN2C(=O)N(CC(O)CN(C)C)C(=O)C2(C)C)C(C)(C)C1=O (stereo not drawn) | -1.58% |  | 
CCOc1cc2[nH]c(=S)n(Cc3ccc(C(=O)NCCOC)cc3)c(=O)c2cc1OCC |  | 1.84 µM [rising, full curve] | 1.16 µM [rising, partial curve]
Cc1cc(C)nc(NC(=O)CN2C(=O)c3ccccc3C2=O)n1 | 7.71% | 6.51 µM [rising, single point] | 
CCOc1ccc(CCNC(=O)c2nnn(CC(=O)Nc3ccc(C)cc3)c2N)cc1OCC | 0.295% | 6.51 µM [falling, single point] | 
COc1ccc(NC(=O)CSc2ncnc3c2cnn3Cc2ccccc2)cc1OC | 44.2% | 2.31 µM [rising, partial curve] | 0.461 µM [rising, full curve]
O=C(Oc1c(Cl)cc(Cl)c2cccnc12)N1CCOCC1 | -3.59% | 0.366 µM [rising, full curve, poor fit] | 
COc1ccc(NC(=O)CSCc2cc(=O)n3cc(C)sc3n2)cc1 | 11% | 0.58 µM [rising, single point] | 0.13 µM [rising, full curve, poor fit]
COCCn1c(=O)[nH]c2cc(C(=O)N3CCN(c4cccc(C)c4C)CC3)ccc2c1=O | 7.26% | 3.66 µM [falling, full curve] | 
C=CCNC(=S)NC(CC(=O)OC)c1ccc2c(c1)OCO2 (stereo not drawn) |  | 6.51 µM [rising, single point] | 7.31 µM [rising, single point]
CS(=O)(=O)c1ccc(-c2cn3cc(C(=O)O)ccc3n2)cc1 | 8.66% | 3.26 µM [rising, partial curve, poor fit] | 
CC(=O)c1ccc(N2CCN(CC3CCCCC3)CC2)cc1 | 7.91% | 3.26 µM [rising, partial curve, poor fit] | 
CC(Cc1n[nH]c(=S)o1)c1ccccc1 (stereo not drawn) | 9.44% | 3.26 µM [falling, single point] | 
CCOC(=O)C1(Cc2cccc(OC)c2)CCN(Cc2ccc3c(c2)OCCO3)CC1 | -43.1% | 4.11 µM [falling, partial curve, poor fit] | 0.092 µM [falling, full curve]
Cc1cccc(C(=O)Oc2ccccc2C(=O)N2CCOCC2)c1 | -22.6% |  | 
Cc1ccc2cccc(OCc3ccc(F)cc3)c2n1 | -5.29% |  | 
CCOC(=O)N1CC=C2C(C#N)=C(N)C(C#N)(C#N)[C@H](c3ccsc3)[C@H]2C1 | -18.4% | 3.66 µM [rising, single point] | 
O=C(c1ccccn1)N(Cc1ccco1)C1(C(=O)NC2CCCCC2)CCCCC1 | -24.9% |  | 0.0651 µM [falling, full curve, poor fit]
COc1ccc(CC(=O)N(C)Cc2cccc(OC)c2OC)cc1S(=O)(=O)N1CCOCC1 | -34.7% |  | 32.6 µM [falling, single point]

One compound at a time, from the list above.
CCCOP(=O)(c1ccc(N(C)C)cc1)C(O)c1ccc(Cl)cc1 (stereo not drawn) as listed: cell number change: 11.6%; AC50 [1]: 29.1 µM [falling, single point]
CCn1c(SCC(=O)OCc2ccccc2)nnc1-c1ccco1 as listed: cell number change: -10.4%
CN(CC(=O)Nc1ccccc1Sc1ccccc1)C1CCCCC1 as listed: cell number change: -25.4%; AC50 [1]: 20.6 µM [falling, single point]
